Protein sequences, listed by entry. Tags and fused reporters are not part of them. Lines headed by an entry give the natural chain unless they say otherwise; changes in a name come on top.
UniProt P49288: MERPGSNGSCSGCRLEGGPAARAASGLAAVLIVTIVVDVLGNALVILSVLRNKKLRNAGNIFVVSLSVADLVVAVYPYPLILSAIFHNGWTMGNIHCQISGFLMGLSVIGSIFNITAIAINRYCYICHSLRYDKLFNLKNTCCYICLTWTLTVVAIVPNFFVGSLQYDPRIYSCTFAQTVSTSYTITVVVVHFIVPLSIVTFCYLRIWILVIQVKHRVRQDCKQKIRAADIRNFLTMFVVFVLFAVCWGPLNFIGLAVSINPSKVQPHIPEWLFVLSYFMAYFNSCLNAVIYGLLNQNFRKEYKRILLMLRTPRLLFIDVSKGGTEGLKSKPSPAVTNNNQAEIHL
UniProt P51050: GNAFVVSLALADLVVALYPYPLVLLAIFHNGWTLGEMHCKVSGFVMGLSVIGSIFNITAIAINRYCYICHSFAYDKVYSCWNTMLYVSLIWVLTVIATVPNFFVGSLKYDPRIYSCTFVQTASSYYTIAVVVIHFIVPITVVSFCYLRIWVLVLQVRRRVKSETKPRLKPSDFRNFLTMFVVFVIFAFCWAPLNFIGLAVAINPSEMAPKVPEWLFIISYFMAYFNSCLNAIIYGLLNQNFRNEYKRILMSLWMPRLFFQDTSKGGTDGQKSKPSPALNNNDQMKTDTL
UniProt P49285, whole entry, looked up: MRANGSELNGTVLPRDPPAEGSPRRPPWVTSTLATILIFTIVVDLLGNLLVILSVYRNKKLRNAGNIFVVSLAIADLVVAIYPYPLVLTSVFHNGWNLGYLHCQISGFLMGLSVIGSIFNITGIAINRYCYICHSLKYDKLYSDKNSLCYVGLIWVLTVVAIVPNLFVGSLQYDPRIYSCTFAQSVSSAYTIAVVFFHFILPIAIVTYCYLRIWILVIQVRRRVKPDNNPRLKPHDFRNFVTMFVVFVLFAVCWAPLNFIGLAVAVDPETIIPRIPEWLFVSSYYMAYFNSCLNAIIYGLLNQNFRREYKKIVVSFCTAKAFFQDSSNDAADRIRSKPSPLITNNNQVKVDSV

In ChEMBL document CHEMBL1131632 (J Med Chem, 1998):

Biological target: Melatonin receptor (Gallus gallus) (UniProt P49288+P51050+P49285)
Conditions: Coturnix

## CC(=O)NCCc1c[nH]c2cc(F)ccc12
  pRA: -2.37
